Measurements published in publication PMC10082759, “Shieldin complex assembly kinetics and DNA binding by SHLD3” (Communications Biology, 2022).
Positions count from the first letter of the chain named. For part of these data: The comparison behind a weaker result is the experiment's own reference, which may not be listed here. For part of these data: Tags and fusion partners may be left off the protein sequences shown. For part of these data: For at least one entry, the source does not settle the construct or the ends of the probe. For part of these data: At least one verdict rests on a figure or table, not on a statement of the authors.

Legend:
[1] = target: T1, SHLD3 CTD (human) (UniProt Q6ZNX1); assay: competition with a labelled probe; details: 1 uM competitor vs 10 nM FAM-ssDNA, 1 uM protein; 20 mM Na-HEPES pH 7.5, 5% glycerol, 100 mM NaCl, 0.5 mM TCEP; 10 nM DNA, 30 min, room temperature; recombinant protein; residues 140-250; protein details: MBP or GST tag, cleaved (PreScission)
T1 sequence (looked up): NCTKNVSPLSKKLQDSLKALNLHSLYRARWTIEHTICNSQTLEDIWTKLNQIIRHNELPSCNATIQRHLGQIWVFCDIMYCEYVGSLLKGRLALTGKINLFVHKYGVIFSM

[2] = test system: SHLD3 + SHLD2 1-95 + REV7 R124A; assay: fluorescence anisotropy; details: Kd within 144-576 nM range for the overhang/hairpin set, 20 mM Na-HEPES pH 7.5, 5% glycerol, 100 mM NaCl, 0.5 mM TCEP, 10 nM DNA, 30 min, room temperature, recombinant protein
[3] = target: T2, SHLD3 CTD H242A K243A (human) (UniProt Q6ZNX1); assay: fluorescence anisotropy; details: strong reduction of signal, 20 mM Na-HEPES pH 7.5, 5% glycerol, 100 mM NaCl, 0.5 mM TCEP, 10 nM DNA, 30 min, room temperature, recombinant protein, residues 140-250, protein details: MBP or GST tag, cleaved (PreScission)
T2 sequence (looked up): T1 sequence (looked up) with H103A, K104A

Sequence: AGTGCCAGTGCC (double strand) [non-telomeric dsDNA competitor]
- binding result [1]: binds

Sequence: AGTGCCAGTGCC / ACTGGCACT [9ds3ss]
- binding result ([2]; label: 5(6)-FAM on strand 1): binds

Sequence: AGTGCCAGTGCC / CACTGGCACT [10ds2ss]
- binding result ([2]; label: 5(6)-FAM on strand 1): binds

Sequence: AGTGCCAGTGCC / GCACTGGCACT [11ds1ss]
- binding result ([2]; label: 5(6)-FAM on strand 1): binds

Sequence: GTAGGAAGGGGAGCGGGGGAGGATAATAGG / CCTATTATCCTCCCC [15-bp 5'-tailed DNA]
- binding result ([2]; label: 5(6)-FAM): binds

Sequence: GTAGGAAGGGGAGCGGGGGAGGATAATAGG / CGCTCCCCTTCCTAC [15-bp 3'-tailed DNA]
- binding result ([2]; label: 5(6)-FAM): binds

Sequence: TCCCCTTCCTACTTTTTTGTAGGAAGGGGAGCGGGGGAGGATAATAGG [hairpin DNA with ssDNA tail]
- binding result ([2]; label: 5(6)-FAM, folded or branched DNA): binds

Sequence: TTAGGGTTAGGG (double strand) [dsTelo]
- binding result ([3]; label: 5(6)-FAM on strand 1): binds more weakly

Sequence: TTAGGGTTAGGG [telomeric ssDNA]
- binding result ([3]; label: 5(6)-FAM, single-stranded DNA): binds more weakly
